The subject of this test is MX-1 breast xenograft, nude mice, tumor weight T/C. Nature of the test: NCI In Vivo Anticancer Drug Screen. Data for tumor model Human Mammary Carcinoma MX-1 Xenograft (intrarenal inoculation) in NU/NU Swiss (nude) mice. The settings on record: T/C endpoint: mean tumor weight change, higher T/C = larger tumour; for T/C: evaluated on day 11. Summed up:
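Compound dosed to mice with transplantable tumor; vehicle group as control. Endpoint survival or tumour size, reported as T/C.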

[1] abbreviates: dose: 2400.0 mg/kg/injection, schedule: Q04DX003 (sc), vehicle: saline.
[2] abbreviates: dose: 100.0 mg/kg/injection, schedule: Q04DX003 (sc), vehicle: saline with Tween-80.
The mark [3] stands for this setting: dose: 300.0 mg/kg/injection, schedule: Q04DX003 (sc), vehicle: saline with Tween-80.
Setting [4] is: dose: 200.0 mg/kg/injection, schedule: Q01DX010 (sc), vehicle: saline.

Molecules are shown by their SMILES. The list does not hold the whole screen: it is rich in T/C values a quarter to a half above the control, in often repeated tests (any T/C) and in doses without a T/C. Further doses and runs are listed elsewhere. T/C gives the treated animals as a percentage of the vehicle group. Schedule codes are those of the source, read here as Q, the interval in days (D) or hours (H), X, the number of doses. Some doses were run more than once; their values stand side by side, smallest first. Some T/C values are followed by the survivors on the day toxicity was checked, most often the fifth; without a count, all were alive then. Some values lie below zero, which means that the treated tumours became smaller. Some doses have a count of surviving animals in place of a T/C: the source files T/C as zero there, which appears to mark a toxic dose or a test without result, not a measured value. Counts of survivors are from the toxicity check (mostly the fifth day) where no day follows; animals may have died later.

As for `CCN1/C(=C/C=C/C=C/c2sc3ccccc3[n+]2CC)Sc2ccccc21`, the survivor count (dose: 12.0 mg/kg/injection, schedule: Q04DX003 (sc), vehicle: suspension in saline) is 2 of 6 on day 11.
Take `O=S(=O)(N=N/C=C1\C=CC=CN1O)c1cccs1`: the survivor count (dose: 600.0 mg/kg/injection, schedule: Q04DX003 (sc), vehicle: saline with Tween-80) is listed as 0 of 6 on day 11.
Turning to `COC(=O)C[C@](O)(CCCC(C)(C)O)C(=O)O[C@@H]1C(OC)=C[C@]23CCCN2CCc2cc4c(cc2[C@H]13)OCO4`, the survivor count runs as follows: (dose: 2.0 mg/kg/injection, schedule: Q01DX010 (sc), vehicle: saline) 1 of 3 on day 11; (dose: 4.0 mg/kg/injection, schedule: Q01DX010 (sc), vehicle: saline) 0 of 3 on day 11.
For `CC(=O)OCC1OC(n2ccc(N)nc2=O)C(OC(C)=O)C1OC(C)=O` (centres undefined), the survivor count under setting [1] is 3 of 6 on day 11.
Regarding `CCC1=C[C@H]2CN(CCc3c([nH]c4ccccc34)[C@@](C(=O)OC)(c3cc4c(cc3OC)N(C)[C@H]3[C@@](O)(C(=O)OC)[C@H](OC(C)=O)[C@]5(CC)C=CCN6CC[C@]43[C@@H]65)C2)C1`, the survivor count (dose: 24.0 mg/kg/injection, schedule: Q04DX003 (sc), vehicle: water) is given as 3 of 6 on day 11.
`Nc1ncnc2c1nnn2C1OC(CO)C(O)C1O` (centres undefined): the T/C is 39, 49, 72, 76 % of control (dose: 37.5 mg/kg/injection, schedule: Q04DX003 (sc), vehicle: Klucel (hydroxypropylcellulose) (HPC)); 14, 23, 46, 97 % of control (dose: 75.0 mg/kg/injection, schedule: Q04DX003 (sc), vehicle: Klucel (hydroxypropylcellulose) (HPC)); -49 [4 of 6 alive on day 11], -38 [4 of 6 alive on day 11], 1 [5 of 6 alive on day 11], 4 % of control [4 of 5 alive on day 11] (dose: 150.0 mg/kg/injection, schedule: Q04DX003 (sc), vehicle: Klucel (hydroxypropylcellulose) (HPC)). Where the note is “dose: 300.0 mg/kg/injection, schedule: Q04DX003 (sc), vehicle: Klucel (hydroxypropylcellulose) (HPC)”, the survivor count was 2 of 6 on day 11 and 3 of 6 on day 11.
Take `O=C1N=C(Oc2ccccc2)SC1=O`: the T/C under setting [2] was 127 % of control and the T/C (dose: 200.0 mg/kg/injection, schedule: Q04DX003 (sc), vehicle: saline with Tween-80) was 139 % of control. The survivor count (dose: 800.0 mg/kg/injection, schedule: Q04DX003 (sc), vehicle: saline with Tween-80) was 3 of 6 on day 11.
On to `COC1=C2C[C@@H](C)C[C@@H](OC)[C@@H](O)[C@H](C)/C=C(\C)[C@@H](OC(N)=O)[C@H](OC)/C=C\C=C(/C)C(=O)NC(=CC1=O)C2=O`, for which the T/C (dose: 16.0 mg/kg/injection, schedule: Q04DX003 (sc), vehicle: saline) was 135 % of control.
With `Nc1ncnc2c1ncn2C1C=C(CO)C(O)C1O` (centres undefined), the survivor count (dose: 30.0 mg/kg/injection, schedule: Q04DX003 (sc), vehicle: saline) is recorded as 0 of 6 on day 11.
On to `F[B-](F)(F)F`, for which the survivor count (dose: 2400.0 mg/kg/injection, schedule: Q04DX003 (sc), vehicle: gum acacia) is recorded as 3 of 6 on day 11.
`CCN(CC)CCNc1ccc(C)c2sc3ccc(O)cc3c(=O)c12`: under setting [3], the T/C is 130 % of control. For the same molecule, where the note is “dose: 2400.0 mg/kg/injection, schedule: Q04DX003 (sc), vehicle: saline with Tween-80”, the survivor count is 3 of 6 on day 11.
Take `CCCCCc1cc(O)c2c(c1)OC(C)(C)[C@@H]1CCC(C)=C[C@@H]21`: the T/C (dose: 600.0 mg/kg/injection, schedule: Q04DX003 (sc), vehicle: other) was 132 % of control [5 of 6 alive on day 11].
Take `NC(=O)c1ccc[n+](Cc2c(Cl)cccc2Cl)c1`: the survivor count is, setting by setting: (dose: 200.0 mg/kg/injection, schedule: Q04DX003 (sc), vehicle: saline) 0 of 5 on day 11; (dose: 400.0 mg/kg/injection, schedule: Q04DX003 (sc), vehicle: saline) 0 of 6 on day 11.
For the molecule `O=[n+]1c2ccccc2n([O-])c2ccccc21.[Cl][Ni][Cl]`, the T/C (dose: 37.5 mg/kg/injection, schedule: Q04DX003 (sc), vehicle: saline with Tween-80) was 127 % of control. Moreover, under setting [3], the survivor count was 0 of 6 on day 11.
Turning to `O=C(O)CSc1nc(-c2ccccc2)c(-c2ccccc2)n1-c1ccccn1`, where the note is “dose: 25.0 mg/kg/injection, schedule: Q01DX010 (sc), vehicle: water”, the survivor count is given as 0 of 3 on day 11.
As for `O=Cc1ccccc1`, the survivor count (dose: 1600.0 mg/kg/injection, schedule: Q04DX003 (sc), vehicle: Klucel (hydroxypropylcellulose) (HPC)) is reported as 0 of 6 on day 11.
Consider `CCC1=C[C@H]2CN(CCc3c([nH]c4ccccc34)[C@@](C(=O)OC)(c3cc4c(cc3OC)N(C)[C@H]3[C@@](O)(C(=O)NC)[C@H](OC(C)=O)[C@]5(CC)C=CCN6CC[C@]43[C@@H]65)C2)C1`, for which the survivor count reads like this: (dose: 4.0 mg/kg/injection, schedule: Q04DX003 (sc), vehicle: water) 0 of 6 on day 11; (dose: 8.0 mg/kg/injection, schedule: Q04DX003 (sc), vehicle: water) 0 of 6 on day 11.
In the case of `Nc1nc2c(ncn2C2OC(CO)C(O)C2O)c(=O)[nH]1.Nc1nc2c(ncn2C2OC(CO)C(O)C2O)c(=O)[nH]1.[NH2-].[NH2-].[Pt+2]` (centres undefined), the survivor count (dose: 2400.0 mg/kg/injection, schedule: Q04DX003 (sc), vehicle: water) was 0 of 6 on day 11.
On to `COc1nc(C(Cl)(Cl)Cl)c(Cl)c(OC)c1Cl`, for which the survivor count reads like this: (dose: 600.0 mg/kg/injection, schedule: Q04DX003 (ip), vehicle: Klucel (hydroxypropylcellulose) (HPC)) 3 of 6 on day 11; (dose: 600.0 mg/kg/injection, schedule: Q04DX003 (oral), vehicle: Klucel (hydroxypropylcellulose) (HPC)) 2 of 6 on day 11; (dose: 1200.0 mg/kg/injection, schedule: Q04DX003 (oral), vehicle: Klucel (hydroxypropylcellulose) (HPC)) 0 of 6 on day 11.
For `CNc1nc(N(C)C)nc(N(C)C)n1`, under “dose: 240.0 mg/kg/injection, schedule: Q01DX010 (sc), vehicle: water”, the survivor count is 0 of 3 on day 11.
`O=C1C(NCC(O)CO)=C(N2CC2)C(=O)C(NCC(O)CO)=C1N1CC1` (centres undefined): the survivor count (dose: 32.0 mg/kg/injection, schedule: Q04DX003 (ip), vehicle: saline) was 1 of 3 on day 11.
As to `CCCC(=O)O`, the T/C was 139 % of control (dose: 50.0 mg/kg/injection, schedule: Q01DX010 (sc), vehicle: saline) and 141 % of control under setting [4]. For the same molecule, the survivor count runs as follows: (dose: 800.0 mg/kg/injection, schedule: Q01DX010 (sc), vehicle: saline) 1 of 3 on day 11; (dose: 1600.0 mg/kg/injection, schedule: Q01DX010 (sc), vehicle: saline) 0 of 3 on day 11; (dose: 3200.0 mg/kg/injection, schedule: Q01DX010 (sc), vehicle: saline) 0 of 3 on day 11.
Regarding `Nc1ccc(Cl)cc1N`, the survivor count (dose: 3600.0 mg/kg/injection, schedule: Q04DX003 (sc), vehicle: saline with Tween-80) is 0 of 6 on day 11.
For `C[CH2][Sn]([CH2]C)([CH2]C(=O)OC)[CH2]C(=O)OC`, the survivor count is recorded as 1 of 6 on day 11 (dose: 50.0 mg/kg/injection, schedule: Q04DX003 (sc), vehicle: saline with Tween-80) and 0 of 6 on day 11 under setting [2].
Turning to `CCN(CC)CCNc1ccc(C)c2sc3ccccc3c(=O)c12`, the survivor count by setting is: under setting [4], 0 of 3 on day 11; (dose: 400.0 mg/kg/injection, schedule: Q01DX010 (sc), vehicle: saline) 0 of 3 on day 11.
Take `N[C@H](C(=O)O)[C@@H]1CC(Cl)=NO1`: the survivor count runs as follows: (dose: 16.0 mg/kg/injection, schedule: Q01DX010 (sc), vehicle: saline) 0 of 3 on day 11; (dose: 32.0 mg/kg/injection, schedule: Q01DX010 (sc), vehicle: saline) 0 of 3 on day 11; (dose: 32.0 mg/kg/injection, schedule: Q02DX005 (sc), vehicle: saline) 1 of 3 on day 11; (dose: 64.0 mg/kg/injection, schedule: Q02DX005 (sc), vehicle: saline) 0 of 2 on day 11; (dose: 128.0 mg/kg/injection, schedule: Q02DX005 (sc), vehicle: saline) 0 of 2 on day 11.
As to `COC(=O)C(N)Cc1ccc(O)c(O)c1` (centres undefined), the survivor count under setting [1] is 2 of 5 on day 11.

The values are drawn from PubChem BioAssay AID296 (DTP/NCI, 2004).
